# Assay results: PubChem BioAssay AID540256 (National Center for Advancing Translational Sciences (NCATS), 2011)
# The campaign covered roughly 300,000 compounds. About 3,700 (1.2%) were called active. Inconclusive results, whose numbers are uncertain, are shown with a selection of clear calls. The call rests on the fitted dose curve; tested in HEK293 cells. Potencies of inconclusive entries are doubtful fits and often do not repeat.
# Experiment: qHTS for Inhibitors of binding or entry into cells for Lassa Virus; further: nearly all actives have a fitted effect of over 50% in size
# Settings: Lassa virus pseudotype entry inhibition, cell reporter; activity change, negative = inhibition: at 37.9 µM (top of the series) unless noted
# On the % scale 0 is the no-effect control and ±100 the full control effect; potency means the concentration at half of the fitted maximal effect.
SMILES,Potency,"activity change, negative = inhibition"
Cc1ccnc(N2C(=O)c3ccccc3C2=O)c1,"inconclusive: 0.891 µM [activator, full curve, poor fit]",
CC(Oc1ccc(F)cc1)C(=O)Nc1ccc2ccccc2c1 (centres undefined),"inconclusive: 16.4 µM [inhibitor, partial curve, poor fit]",
O=C(NCc1ccco1)c1nn(-c2ccccc2)c(=O)c2ccccc12,"inconclusive: 14.6 µM [inhibitor, partial curve, poor fit]",
CN(CC(=O)Nc1ccc(N2CCOCC2)cc1)Cc1cc(=O)n2ccsc2n1,"inconclusive: 1.12 µM [inhibitor, partial curve, poor fit]",
CCOc1ccc(CNCc2c(C(=O)O)c(C)n(Cc3ccc(F)cc3Cl)c2C)cc1,,inactive: 8.15% [at 46.1 µM]
CCC(=O)Oc1ccc(-c2cnc3ccccc3n2)cc1,"inconclusive: 16.4 µM [inhibitor, partial curve, poor fit]",
CCc1ccc(C2C3=C(CC(C)(C)CC3=O)Nc3c2c(=O)[nH]c2nc(C)nn32)cc1 (centres undefined),"inconclusive: 20.6 µM [activator, single point]",
COc1ccc(CN2CCC(CO)(CCOc3ccccc3)CC2)c(OC)c1C,"inconclusive: 35.5 µM [inhibitor, single point]",
COCCCn1c(SCC(=O)NC2CCCCC2)nnc1-c1ccco1,,inactive: 19.9% [at 46.1 µM]
COc1ccc(/C=C/C(=O)c2cc(Br)ccc(=O)c2O)cc1,"inconclusive: 29.1 µM [inhibitor, single point]",
COc1cc(C=CC(=O)c2cc(OC)c(OC)c(OC)c2)cc(OC)c1OC,active: 7.94 µM,
CC(CCc1ccccc1)NC(=O)CNC(=O)COc1ccccc1 (centres undefined),"inconclusive: 1.26 µM [activator, partial curve, poor fit]",
Cc1cc2oc(=O)cc(CN(C)Cc3ccc(OC(F)F)cc3)c2cc1Cl,"inconclusive: 35.5 µM [inhibitor, single point]",
CCCCC(=O)NS(=O)(=O)c1ccc(NS(C)(=O)=O)cc1,"inconclusive: 0.794 µM [inhibitor, single point]",
Cn1c(-c2ccccc2)cnc1NCc1cc2c(cc1[N+](=O)[O-])OCO2,"inconclusive: 29.1 µM [inhibitor, single point]",
CCN(C(=O)CSc1nc2cc(C(=O)OC)ccc2c(=O)n1Cc1ccco1)c1cccc(C)c1,"inconclusive: 29.1 µM [inhibitor, single point]",
Cc1cc(C)c(S(=O)(=O)NC2CC(C)(C)NC(C)(C)C2)cc1C,,inactive: -18.3% [at 46.1 µM]
CCCN(C(=O)c1cc(-c2ccco2)nc2ccccc12)c1c(N)n(Cc2ccccc2)c(=O)[nH]c1=O,,inactive: 10.1%
Cc1c(O)c(CN2CCCC2)cc2c1oc(=O)c1ccccc12,,inactive: -2.88%
CCOc1ccccc1C(=O)Nc1ccc2nc(N3CCN(c4ncccn4)CC3)cc(C)c2c1,"inconclusive: 20.6 µM [inhibitor, single point]",
CC(=O)c1cccc(N(C(=O)Cn2nnc3ccccc32)C(C(=O)NCc2ccccc2)c2ccc(F)cc2)c1 (centres undefined),"inconclusive: 10 µM [inhibitor, partial curve, poor fit]",
C[C@H]1[C@@H](C(=O)N2CCCC2)CC(=O)C(=NOCc2ccccc2)C[C@H]1c1ccccc1,"inconclusive: 0.0266 µM [inhibitor, full curve, poor fit]",
O=C(Nc1nnc(Cc2ccccc2)s1)c1ccccc1,,inactive: 4.88% [at 46.1 µM]

SMILES,Potency,"activity change, negative = inhibition"
CCCCn1c(O)c(C(C)=NC(Cc2c[nH]c3ccccc23)C(=O)OC)c(=O)[nH]c1=O (centres undefined),"inconclusive: 0.517 µM [inhibitor, partial curve, poor fit]",
c1ccc(C2=Nn3c(nnc3-c3ccco3)SC2)cc1,,inactive: 4.74% [at 46.1 µM]
COc1cccc(NC(=S)NCc2ccccn2)c1,"inconclusive: 0.0058 µM [activator, full curve, poor fit]",
CCCCN(CC)C(=O)CCn1c(=O)c2cccn2c2cccnc21,,inactive: -15.5% [at 46.1 µM]
COc1ccc(S(=O)(=O)NCc2ccccn2)cc1NC(=O)c1ccccc1F,"inconclusive: 1.26 µM [inhibitor, partial curve, poor fit]",
CCCN1CCN(c2ncc3c(n2)CCN(Cc2ccc(OC)c(OC)c2OC)C3)CC1,"inconclusive: 5.01 µM [inhibitor, full curve, poor fit]",
O=C(NCCc1ccccc1)c1ccccc1NS(=O)(=O)N1CCCC1,,inactive: 4.1%
O=c1c2cn[nH]c2nc(SCc2cc(=O)n3cc(Br)ccc3n2)n1-c1ccc(Br)cc1,,inactive: 3.53%
CCCOP(=O)(c1ccc(N(C)C)cc1)C(O)c1ccc(Br)cc1 (centres undefined),,inactive: -12.6%
COC(c1ccccc1)(c1ccccc1)C(Oc1nc(C)cc(C)n1)C(=O)O (centres undefined),"inconclusive: 1.26 µM [inhibitor, single point]",
Cc1ccc(CN2CCCn3nc(C(=O)NCc4ccccc4Cl)cc3C2=O)cc1,"inconclusive: 35.5 µM [inhibitor, single point]",
COc1cc(Cl)c(C)cc1NC(=O)COc1cc(C)nc(C(C)C)n1,,inactive: 15.6%
O=C(CNC(=O)c1ccc(-c2ccccc2)cc1)Nc1cccc(CO)c1,"inconclusive: 12.6 µM [inhibitor, partial curve, poor fit]",
Cc1cc(NC(=O)CSc2nc(-c3ccco3)cc(C(F)(F)F)n2)no1,"inconclusive: 0.891 µM [inhibitor, full curve, poor fit]",
COc1ccc(Cl)cc1NC(=O)CN(C)C(=O)c1cc2ccccc2cc1OC,"inconclusive: 31.6 µM [inhibitor, single point]",
COCC(C)NC(=O)C(C)Oc1ccccc1 (centres undefined),"inconclusive: 6.31 µM [activator, partial curve, poor fit]",
COc1ccc(C(=O)NCC(c2cccs2)S(=O)(=O)c2ccc(F)c(C)c2)cc1 (centres undefined),,inactive: 7.31% [at 46.1 µM]
COc1cccc2cc(-c3cn4c(n3)sc3cc(F)ccc34)c(=O)oc12,"inconclusive: 0.708 µM [activator, full curve, poor fit]",
CC1(C)CC(=O)C=C(C(=O)N2CCCC(CCC(=O)NCc3ccccc3F)C2)O1 (centres undefined),,inactive: -1.68% [at 46.1 µM]
C=CCn1c(O)c(N=NC(=S)Nc2ccccc2C)c2cc(S(=O)(=O)N3CCOCC3)ccc21,"inconclusive: 4.47 µM [inhibitor, single point]",
CC(=O)Nc1ccc(C)cc1-c1nc2ccccc2n(CC(=O)c2ccc(Cl)cc2)c1=O,"inconclusive: 3.16 µM [activator, single point]",
COc1ccc(-c2cc(C(=O)Nc3ccccc3SC)no2)cc1,,inactive: 0.975%
O=C(Nc1ccccc1NC(=O)NC1CCCCC1)NC1CCCCC1,active: 13 µM,

# Reprinted at random: 5 compounds from above.
SMILES,Potency,"activity change, negative = inhibition"
CCCOP(=O)(c1ccc(N(C)C)cc1)C(O)c1ccc(Br)cc1 (centres undefined),,inactive: -12.6%
CCCN1CCN(c2ncc3c(n2)CCN(Cc2ccc(OC)c(OC)c2OC)C3)CC1,"inconclusive: 5.01 µM [inhibitor, full curve, poor fit]",
Cc1ccc(CN2CCCn3nc(C(=O)NCc4ccccc4Cl)cc3C2=O)cc1,"inconclusive: 35.5 µM [inhibitor, single point]",
c1ccc(C2=Nn3c(nnc3-c3ccco3)SC2)cc1,,inactive: 4.74% [at 46.1 µM]
CC1(C)CC(=O)C=C(C(=O)N2CCCC(CCC(=O)NCc3ccccc3F)C2)O1 (centres undefined),,inactive: -1.68% [at 46.1 µM]

# (more compounds)

SMILES,Potency,"activity change, negative = inhibition"
Cc1cccc(-c2noc(CNC(=O)c3ccco3)n2)c1,inactive,
CCOC(=O)Cc1csc(NC(=O)CSc2ncnc3c2cnn3-c2ccc(OC)cc2)n1,active: 2 µM,
CC(=O)Nc1nnc(COc2ccc(Cl)cc2)s1,"inconclusive: 10 µM [inhibitor, single point]",
Cc1nc2c(Br)cc(Br)cc2cc1O,"inconclusive: 35.5 µM [activator, single point]",
COc1ccccc1-c1nn2c(=O)cc(CN3CCN(S(=O)(=O)c4ccc(C)cc4)CC3)nc2s1,"inconclusive: 5.62 µM [inhibitor, partial curve]",
CN(C)CCCN(C(=O)c1ccc(C(=O)c2ccccc2)cc1)c1nc2c(F)cccc2s1,"inconclusive: 14.1 µM [inhibitor, partial curve, poor fit]",
CN1CCN(c2nccc3c2ncn3C)CC1,,inactive: 1.75%
CCOC(=O)N1CCN(CC(=O)Nc2ccc(C)c(Br)c2)CC1,"inconclusive: 28.2 µM [inhibitor, single point]",
CCN1CCOC(=O)C1CC(=O)Nc1cccc(OC)c1 (centres undefined),,inactive: 7.84% [at 46.1 µM]
Cc1ccc(-c2csc3ncnc(OCC(=O)NC(=O)NCc4ccco4)c23)cc1,"inconclusive: 29.1 µM [inhibitor, single point]",
CC1=C(C(=O)Nc2ccccc2)C(c2cccc(O)c2)n2nc(-c3ccccc3Cl)nc2N1 (centres undefined),,inactive: -7.32% [at 46.1 µM]
Cn1cc(S(=O)(=O)N2CCCCCC2)cc1C(=O)NCc1ccc(Cl)cc1,"inconclusive: 35.5 µM [inhibitor, single point]",
Cc1onc(-c2ccccc2Cl)c1C(=O)Oc1ccc(Br)cc1,"inconclusive: 35.5 µM [inhibitor, single point]",
CCOc1ccc(CNc2ccc3c(c2)nc(C)n3C)cc1,,inactive: -18.6%
Cc1ccccc1NC(=O)CCC(=O)N/N=C/c1cc([N+](=O)[O-])ccc1O,"inconclusive: 16.4 µM [inhibitor, partial curve, poor fit]",
C/C=C/C=N/Nc1nc(-c2ccc([N+](=O)[O-])cc2)cs1,"inconclusive: 6.51 µM [inhibitor, single point]",
O=C(Nc1ccc(N2CCCC2)cc1)c1cc(Br)ccc1Cl,,inactive: -27.1% [at 46.1 µM]
O=[N+]([O-])c1ccc(N=Nc2c(O)[nH]c3ccc(F)cc23)cc1,"inconclusive: 35.5 µM [inhibitor, single point]",
COc1ccc(N2CCN(CC(=O)c3c[nH]c4ccccc34)CC2)cc1,"inconclusive: 35.5 µM [inhibitor, single point]",
Cc1ccc(S(=O)(=O)N2CCC(C(=O)NNC(=O)c3ccccc3O)CC2)cc1C,,inactive: -12.3%
CC(C)CN(C(=O)COC(=O)C12CC3CC(CC(C3)C1)C2)c1c(N)n(Cc2ccccc2)c(=O)[nH]c1=O,,inactive: 4.02%
Cc1cc(C)c(NC(=O)Cn2c(=O)n(CCc3ccccc3)c(=O)c3ccccc32)c(C)c1,"inconclusive: 6.31 µM [activator, single point]",
CC(C)NC1CCC(Nc2ccnc3cc(Cl)ccc23)CC1 (centres undefined),"inconclusive: 10 µM [inhibitor, partial curve, poor fit]",
